The values below come from paper PMC9503898 (Pharmaceuticals, 2022).

HELM strings list residues between dots; [ac] is acetyl, [am] amide, other brackets name non-standard units.

The data set is described as follows: general procedure: Fmoc solid-phase peptide synthesis; Rink amide MBHA resin (0.678 mmol/g); HATU/DIPEA; PyBOP/DIPEA for DOTA. The settings on record: for conjugation yield: conjugation step; for step yield / final HPLC purity: late stage modification step; for final HPLC purity: analytical HPLC (Agilent LC/MS 1260 Infinity II, Poroshell 120 EC-C18).

In the case of “DOTA-Lys(4-(p-methoxyphenyl)butyryl)-Phe(4-Cl)-c[D-Cys-Aph(Hor)-D-Aph(Cbm)-Lys(ivDde)-Thr-Cys]-D-Tyr-NH2”, the conjugation yield was 69%. Take “PEPTIDE1{[DOTA].[Lys(MPB)].[Phe(4-Cl)].[dC].[Aph(Hor)].[D-Aph(Cbm)].K.T.C.[dY].[am]}$PEPTIDE1,PEPTIDE1,4:R3-9:R3$$$V2.0”: the step yield worked out at 8.7% and the “final HPLC purity” value is listed as > 94%.

Turning to “DOTA-Lys(4-(p-iodophenyl)butyryl)-Phe(4-Cl)-c[D-Cys-Aph(Hor)-D-Aph(Cbm)-Lys(ivDde)-Thr-Cys]-D-Tyr-NH2”, the conjugation yield turned out to be 68%. “PEPTIDE1{[DOTA].[Lys(IPB)].[Phe(4-Cl)].[dC].[Aph(Hor)].[D-Aph(Cbm)].K.T.C.[dY].[am]}$PEPTIDE1,PEPTIDE1,4:R3-9:R3$$$V2.0”: the step yield came to 9.9% and the “final HPLC purity” value is > 96%.
